PubChem BioAssay AID1259308 | NCATS, 2017
Shown is a random part of about 59,000 deposited reagents. About 1,510 of all reagents (2.6%) were called active. 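Calls use total luciferase alone and ignore viability, so some active siRNAs may act by altering cell number.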 A number with no mark means an inactive call. Reagents against one gene are numbered here.

Assay: 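Knock-downs that increase output of a recombinant reporter protein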 (primary screen)
System: human HEK293 embryonic kidney cells stably expressing firefly luciferase (HEK-CMV-Luc2-Hygro)
Reagent: single siRNA against human genes, 0.8 pmol siRNA per well
Timing: 72 h
Read-out: 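Luciferase light (ONE-Glo) measured on one replicate plate set and viability (CellTiter-Glo) on the other, scaled to a negative control siRNA, with robust z-scores and luciferase per cell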
Reading the numbers: total luciferase, z-score and total luciferase, % of control: higher = more reporter protein produced; luciferase per cell, z-score: higher = more reporter output per viable cell; viable cells, % of control: higher = more viable cells
Active means: 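Active when the median/MAD z-score for overall luciferase is greater than 3; a gene was taken forward for validation with new siRNAs if at least two of its three siRNAs passed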
Meaning of the calls: active = raised luciferase; inactive = no rise

no.	target gene	siRNA no.	total luciferase, z-score	total luciferase, % of control	luciferase per cell, z-score	viable cells, % of control
1	LOC400576 (retired record)	1	-0.78	66.4	-0.4	82.4
2	LOC400576 (retired record)	2	-0.682	68.3	0.164	73.1
3	LOC400576 (retired record)	3	3.94 (active)	160	3.4	73
4	ZBED3	1	-0.611	69.7	-0.296	84.3
5	ZBED3	2	-1.67	48.6	-0.661	64.6
6	ZBED3	3	0.222	86.3	0.675	80.7
7	HMCES	1	0.475	91.3	0.00204	102
8	HMCES	2	1.78	117	0.682	110
9	HMCES	3	-0.503	71.9	-0.893	102
10	CAMSAP2	1	-0.149	78.9	0.231	83
11	CAMSAP2	2	-1.79	46.2	-2.34	95.7
12	CAMSAP2	3	0.0739	83.4	-0.321	101
13	ACAA1	1	-0.515	71.6	0.371	72.6
14	ACAA1	2	-0.164	78.6	-0.715	106
15	ACAA1	3	0.523	92.3	0.335	94.4
16	YPEL2	1	2.54	132	1.95	88.5
17	YPEL2	2	-1.1	60	-0.964	86.5
18	YPEL2	3	1.6	114	1.46	86.6
19	PDK1	1	-0.145	79	-0.0891	90.4
20	PDK1	2	-0.156	78.8	-1.08	117
21	PDK1	3	-0.378	74.4	-0.531	95.6
22	ARMC10	1	1.49	112	0.612	106
23	ARMC10	2	1.28	107	0.839	96.2
24	ARMC10	3	0.826	98.3	0.158	105
25	OXER1	1	0.689	95.6	2.66	53
26	OXER1	2	1.02	102	0.894	90.3
27	OXER1	3	-0.695	68.1	-0.496	86.7
28	TRIB2	1	1.32	108	2.17	68.3
29	TRIB2	2	0.174	85.4	-0.299	103
30	TRIB2	3	0.474	91.3	-0.0766	104
31	HARBI1	1	-0.046	81	-0.235	96.3
32	HARBI1	2	0.74	96.6	1.61	70.7
33	HARBI1	3	-1.27	56.6	-1.46	92.8
34	LARP4B	1	-2.27	36.8	-1.83	66.6
35	LARP4B	2	-0.766	66.7	-0.803	92
36	LARP4B	3	0.394	89.7	0.954	78
37	TIGD2	1	-0.195	78	-0.695	105
38	TIGD2	2	-0.643	69.1	-1.19	106
39	TIGD2	3	0.475	91.3	-0.294	110
40	VEPH1	1	-0.698	68	-0.755	92.7
41	VEPH1	2	0.0607	83.1	-0.00852	93.1
42	VEPH1	3	-0.177	78.4	0.466	77.5
43	TRIP11	1	-0.221	77.5	-0.672	103
44	TRIP11	2	0.424	90.3	-0.174	106
45	TRIP11	3	-0.261	76.7	-0.847	107
46	LINC00668	1	-0.0975	79.9	-0.345	97.8
47	LINC00668	2	-0.235	77.2	-0.382	95.4
48	LINC00668	3	-0.0772	80.4	-0.0657	91.4
49	IFNWP2	1	-1.23	57.5	-0.843	80.2
50	IFNWP2	2	-0.697	68	-0.843	94.9
51	IFNWP2	3	-1.87	44.7	-1.52	74.7
52	RTL5	1	-0.724	67.5	0.117	73.1
53	RTL5	2	0.0753	83.4	-0.0145	93.5
54	RTL5	3	0.861	99	1.3	78.7
55	WNT9A	1	2.44	130	1.03	111
56	WNT9A	2	0.175	85.4	0.32	87.7
57	WNT9A	3	-1.03	61.4	-0.432	76.9

Not a retest: entries from further up.
no.	target gene	siRNA no.	total luciferase, z-score	total luciferase, % of control	luciferase per cell, z-score	viable cells, % of control
46	LINC00668	1	-0.0975	79.9	-0.345	97.8
47	LINC00668	2	-0.235	77.2	-0.382	95.4
48	LINC00668	3	-0.0772	80.4	-0.0657	91.4
49	IFNWP2	1	-1.23	57.5	-0.843	80.2
50	IFNWP2	2	-0.697	68	-0.843	94.9
51	IFNWP2	3	-1.87	44.7	-1.52	74.7
52	RTL5	1	-0.724	67.5	0.117	73.1
53	RTL5	2	0.0753	83.4	-0.0145	93.5
54	RTL5	3	0.861	99	1.3	78.7
